The supplement of paper PMC12889115
This is one part of the list. Values are raw readings; no control value is given beside them.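 First-pass screen: polymyxin B was added at a level that permeabilizes the Salmonella outer membrane while sparing the inner membrane. DMSO wells, with and without polymyxin B, defined maximum growth. Because plates differed from one another, each plate's data were ranked separately and the compounds with the lowest OD600 were carried forward as hits.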

Test system: Salmonella enterica serovar Typhimurium SL1344
Test: bacterial growth OD600 after 18 h with compound and polymyxin B; higher = more bacterial growth (less inhibition)
Conditions: 50 µM, Mueller-Hinton broth

Structure (SMILES)	bacterial growth OD600 (polymyxin B 0.75 µg/mL)	bacterial growth OD600 (polymyxin B 1 µg/mL)
COc1cccc(OCc2cc(C(=O)NCc3nc(C)cs3)n[nH]2)c1	0.934	
CCOC(=O)C1(Cc2cccc(F)c2)CCN(Cc2cc(C(C)C)[nH]n2)CC1		0.703
CC(C)=CC(=O)N1CCCC(C(=O)c2cccc3ccccc23)C1 (configuration not stated)		0.639
O=C1O[C@@H]2CN(C3CCSCC3)C[C@@H]2N1CCc1cccc(Cl)c1		0.949
Cc1ncc(CN2CCCC2C(=O)Nc2ccc(-c3cccc(F)c3)cc2)cn1 (configuration not stated)		0.86
O=C(Nc1ccccc1Oc1cccnc1)C1CCCN1C(=O)CC1CC1 (configuration not stated)		0.992
COc1ccccc1OC1CCN(c2nc3nonc3nc2N2CCOCC2)CC1		0.744
Cc1ncc2c(c1CNC(=O)Cc1cccs1)CCN(C(=O)c1c(-c3ccccc3)noc1C)C2	0.876	
O=C(C(=O)N1CCc2[nH]nc(-c3ccc(Cl)cc3)c2C1)c1ccco1	0.603	
COc1ccccc1-n1cc(CNC(=O)CCC2(Cc3ccc(SC)cc3)CCC(=O)N2)cn1 (configuration not stated)	0.812	
O=C(NC1CCCCCCC1)C1CCC(=O)N(C2CCCC2)C1 (configuration not stated)		0.816
COc1ccc(CCN2CC(C(=O)NCC3(C)COC3)CCC2=O)cc1 (configuration not stated)		0.953
O=C1CCC(CCNCCOc2ccc(F)cc2)N1CCCN1CCOCC1 (configuration not stated)	0.898	
CN(C)c1ncc2c(n1)CCCC2NC1Cc2ccccc2C1 (configuration not stated)	0.95	
O=C(C1CCCC1)N1CCC2(CCCN(Cc3cccnc3)C2=O)C1 (configuration not stated)		1.1
CO[C@H]1[C@H](NC(=O)C(C)C)c2ccccc2C12CCN(C(=O)COc1ccc(C)cc1)CC2	0.826	

Exported bar-delimited: entries from further up.
Structure (SMILES) | bacterial growth OD600 (polymyxin B 0.75 µg/mL) | bacterial growth OD600 (polymyxin B 1 µg/mL)
CCOC(=O)C1(Cc2cccc(F)c2)CCN(Cc2cc(C(C)C)[nH]n2)CC1 |  | 0.703
Cc1ncc2c(c1CNC(=O)Cc1cccs1)CCN(C(=O)c1c(-c3ccccc3)noc1C)C2 | 0.876 | 
COc1ccccc1-n1cc(CNC(=O)CCC2(Cc3ccc(SC)cc3)CCC(=O)N2)cn1 (configuration not stated) | 0.812 | 
O=C(NC1CCCCCCC1)C1CCC(=O)N(C2CCCC2)C1 (configuration not stated) |  | 0.816
O=C1CCC(CCNCCOc2ccc(F)cc2)N1CCCN1CCOCC1 (configuration not stated) | 0.898 | 
CN(C)c1ncc2c(n1)CCCC2NC1Cc2ccccc2C1 (configuration not stated) | 0.95 | 
O=C(C1CCCC1)N1CCC2(CCCN(Cc3cccnc3)C2=O)C1 (configuration not stated) |  | 1.1
CO[C@H]1[C@H](NC(=O)C(C)C)c2ccccc2C12CCN(C(=O)COc1ccc(C)cc1)CC2 | 0.826 | 

Carrying on:

Structure (SMILES)	bacterial growth OD600 (polymyxin B 0.75 µg/mL)	bacterial growth OD600 (polymyxin B 1 µg/mL)
CCN(Cc1ccccc1)Cc1nc(-c2ccc(OC)c(C)c2OC)oc1C	0.682	
CC(C)c1nc2cc(C(=O)N3CCCCC3CCN3CCOCC3)ccc2o1 (configuration not stated)	0.844	
CCOC(=O)C1CCCN(C(=O)CC2(c3ccccc3Cl)CC(=O)N(C3CCCC3)C2=O)C1 (configuration not stated)	0	
COc1ccc2cc(CN(Cc3ccco3)C(=O)CCn3ccc(C)n3)c(N3CCCCCC3)nc2c1	0.002	
O=C(Cn1cc2ccccc2n1)NC1CC(=O)N(CC2CCCCC2)C1 (configuration not stated)		1.11
Cc1oc(-c2ccc(NC(=O)Cc3ccccc3)cc2)nc1CNC(=O)c1ccc(-c2ccco2)cc1	0.848	
CC(C)(C)C(=O)Nc1ccnn1C1CCN(Cc2cc(Cl)ccc2O)CC1	0.691	
Cc1csc(C(C)N(C)C(=O)Cn2nnnc2CN2CCCC2)n1 (configuration not stated)		0.825
COc1ccc(C(=O)N2CCc3onc(-c4ccc(F)c(F)c4)c3C2)cc1F	0.002	
CN(CC1CCCN(CCc2ccccc2F)C1)C1CCSCC1 (configuration not stated)	0.81	
Cc1ccccc1-c1noc(-c2ccc(N3CCCC(C(N)=O)C3)nc2)n1 (configuration not stated)	0.782	
COc1ccc(CCC2CCCN(C(=O)c3cc(C(C)=O)n[nH]3)C2)cc1 (configuration not stated)	0.973	
CSCCCN1CCCC(C(=O)Nc2ccc(-c3cscn3)cc2)C1 (configuration not stated)	0.871	
O=C(NCC1CCCN(C(=O)CCc2cn[nH]c2)C1)c1ccc(-c2ccccc2)cc1 (configuration not stated)	0.749	
O=C(CCC1CCCN(C(=O)c2ccc3c(c2)OCO3)C1)NCc1ccccc1Cl (configuration not stated)		0.779
CC(=O)N1CCC(Oc2ccc(Cl)cc2C(=O)N[C@H]2CC[C@H](O)CC2)CC1		0.957
